Experimental data published in the supplement of paper PMC11006884.
Shown are results outside the selection of targets with a hit, which stands elsewhere. Single values of this set are uncertain. The entries are a selection whose mix differs from that of the whole data set.

Protein sequences, listed by entry. Tags and fused reporters are not part of them. Lines headed by an entry give the natural chain unless they say otherwise; changes in a name come on top.
UniProt P31153, whole entry, looked up: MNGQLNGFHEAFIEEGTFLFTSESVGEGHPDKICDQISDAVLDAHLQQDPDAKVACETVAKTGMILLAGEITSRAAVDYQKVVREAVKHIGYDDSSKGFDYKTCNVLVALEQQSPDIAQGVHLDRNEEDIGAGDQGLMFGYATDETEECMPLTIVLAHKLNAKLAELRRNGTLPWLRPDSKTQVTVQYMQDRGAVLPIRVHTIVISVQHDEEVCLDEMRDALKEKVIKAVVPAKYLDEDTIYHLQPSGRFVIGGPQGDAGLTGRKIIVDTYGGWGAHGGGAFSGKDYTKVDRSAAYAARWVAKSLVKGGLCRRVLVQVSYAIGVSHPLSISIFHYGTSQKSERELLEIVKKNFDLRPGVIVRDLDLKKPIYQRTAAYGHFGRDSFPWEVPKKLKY
UniProt P33992: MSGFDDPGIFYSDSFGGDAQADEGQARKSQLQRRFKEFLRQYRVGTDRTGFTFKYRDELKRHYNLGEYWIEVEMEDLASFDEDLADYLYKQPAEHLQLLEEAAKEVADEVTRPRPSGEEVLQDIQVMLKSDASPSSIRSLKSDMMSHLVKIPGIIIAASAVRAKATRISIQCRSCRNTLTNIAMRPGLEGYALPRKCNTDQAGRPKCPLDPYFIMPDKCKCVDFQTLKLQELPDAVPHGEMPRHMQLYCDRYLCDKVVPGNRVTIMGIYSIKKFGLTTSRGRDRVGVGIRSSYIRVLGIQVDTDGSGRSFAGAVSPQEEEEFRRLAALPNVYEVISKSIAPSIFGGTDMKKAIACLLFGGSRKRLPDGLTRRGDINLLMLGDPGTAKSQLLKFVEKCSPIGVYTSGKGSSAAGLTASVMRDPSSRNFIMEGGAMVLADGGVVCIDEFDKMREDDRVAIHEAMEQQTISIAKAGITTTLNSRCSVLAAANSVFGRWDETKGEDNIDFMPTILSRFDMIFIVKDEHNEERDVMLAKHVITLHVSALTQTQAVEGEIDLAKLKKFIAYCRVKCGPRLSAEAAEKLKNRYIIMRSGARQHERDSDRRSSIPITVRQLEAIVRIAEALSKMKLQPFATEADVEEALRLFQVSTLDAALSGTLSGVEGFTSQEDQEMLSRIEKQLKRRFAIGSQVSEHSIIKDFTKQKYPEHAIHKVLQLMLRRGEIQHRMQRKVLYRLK
UniProt P33176: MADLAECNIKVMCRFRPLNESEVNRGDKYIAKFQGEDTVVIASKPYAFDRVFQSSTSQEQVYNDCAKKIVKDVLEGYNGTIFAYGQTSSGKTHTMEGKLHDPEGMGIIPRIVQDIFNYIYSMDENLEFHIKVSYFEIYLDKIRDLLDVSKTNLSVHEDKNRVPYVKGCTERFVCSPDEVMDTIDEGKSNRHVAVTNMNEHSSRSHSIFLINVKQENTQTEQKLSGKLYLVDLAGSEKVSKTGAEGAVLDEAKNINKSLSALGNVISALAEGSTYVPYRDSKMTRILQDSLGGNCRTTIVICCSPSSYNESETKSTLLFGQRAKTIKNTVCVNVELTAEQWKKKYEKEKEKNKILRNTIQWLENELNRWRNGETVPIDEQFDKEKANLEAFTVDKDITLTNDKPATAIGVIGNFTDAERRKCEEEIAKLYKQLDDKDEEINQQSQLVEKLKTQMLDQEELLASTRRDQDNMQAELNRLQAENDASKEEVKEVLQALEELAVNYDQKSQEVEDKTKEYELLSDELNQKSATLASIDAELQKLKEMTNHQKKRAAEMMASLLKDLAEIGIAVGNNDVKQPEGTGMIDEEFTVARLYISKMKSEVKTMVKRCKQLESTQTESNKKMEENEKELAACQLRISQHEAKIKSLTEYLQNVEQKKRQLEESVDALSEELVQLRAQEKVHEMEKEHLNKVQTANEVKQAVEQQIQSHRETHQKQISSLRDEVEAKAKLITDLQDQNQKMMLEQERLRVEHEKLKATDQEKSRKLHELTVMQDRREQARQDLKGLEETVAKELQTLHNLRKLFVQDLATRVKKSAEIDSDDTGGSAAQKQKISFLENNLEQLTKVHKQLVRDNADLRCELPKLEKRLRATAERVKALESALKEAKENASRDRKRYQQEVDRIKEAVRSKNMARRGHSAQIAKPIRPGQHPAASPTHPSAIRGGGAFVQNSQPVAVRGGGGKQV
UniProt P34949: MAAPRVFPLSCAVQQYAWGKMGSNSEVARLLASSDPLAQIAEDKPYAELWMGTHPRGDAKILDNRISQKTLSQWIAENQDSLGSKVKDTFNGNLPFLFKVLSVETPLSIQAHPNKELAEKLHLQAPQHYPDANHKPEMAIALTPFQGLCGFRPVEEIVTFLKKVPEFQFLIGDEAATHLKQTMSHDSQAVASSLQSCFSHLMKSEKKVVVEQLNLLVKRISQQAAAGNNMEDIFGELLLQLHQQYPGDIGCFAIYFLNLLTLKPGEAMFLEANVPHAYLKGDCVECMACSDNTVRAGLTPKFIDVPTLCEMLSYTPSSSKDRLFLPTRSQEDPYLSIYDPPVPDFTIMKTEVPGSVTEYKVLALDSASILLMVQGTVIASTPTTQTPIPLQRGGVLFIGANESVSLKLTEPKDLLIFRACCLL
UniProt P36776: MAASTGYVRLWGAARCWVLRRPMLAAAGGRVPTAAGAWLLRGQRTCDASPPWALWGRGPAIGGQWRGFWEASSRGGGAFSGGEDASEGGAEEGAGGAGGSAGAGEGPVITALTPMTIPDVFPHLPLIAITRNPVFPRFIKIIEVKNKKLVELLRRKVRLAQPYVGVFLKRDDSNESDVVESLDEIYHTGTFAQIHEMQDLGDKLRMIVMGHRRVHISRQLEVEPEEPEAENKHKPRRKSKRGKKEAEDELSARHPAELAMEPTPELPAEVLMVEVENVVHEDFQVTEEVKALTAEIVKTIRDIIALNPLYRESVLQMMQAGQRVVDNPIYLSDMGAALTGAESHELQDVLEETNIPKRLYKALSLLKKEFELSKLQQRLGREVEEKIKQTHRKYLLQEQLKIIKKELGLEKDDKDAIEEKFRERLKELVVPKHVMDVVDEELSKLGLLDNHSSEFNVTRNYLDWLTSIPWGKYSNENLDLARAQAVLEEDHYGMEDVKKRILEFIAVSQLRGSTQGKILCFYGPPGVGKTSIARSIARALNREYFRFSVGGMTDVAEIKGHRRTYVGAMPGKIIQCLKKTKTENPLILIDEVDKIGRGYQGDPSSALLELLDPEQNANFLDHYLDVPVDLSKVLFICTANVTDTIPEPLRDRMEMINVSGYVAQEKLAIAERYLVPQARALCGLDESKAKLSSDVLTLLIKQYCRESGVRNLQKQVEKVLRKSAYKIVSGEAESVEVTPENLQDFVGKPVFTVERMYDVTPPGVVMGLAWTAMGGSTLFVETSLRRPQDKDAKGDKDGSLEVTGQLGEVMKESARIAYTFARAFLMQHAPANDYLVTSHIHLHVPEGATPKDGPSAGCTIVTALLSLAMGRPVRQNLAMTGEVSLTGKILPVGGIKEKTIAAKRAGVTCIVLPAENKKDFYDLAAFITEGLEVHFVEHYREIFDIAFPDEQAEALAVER
UniProt P33240: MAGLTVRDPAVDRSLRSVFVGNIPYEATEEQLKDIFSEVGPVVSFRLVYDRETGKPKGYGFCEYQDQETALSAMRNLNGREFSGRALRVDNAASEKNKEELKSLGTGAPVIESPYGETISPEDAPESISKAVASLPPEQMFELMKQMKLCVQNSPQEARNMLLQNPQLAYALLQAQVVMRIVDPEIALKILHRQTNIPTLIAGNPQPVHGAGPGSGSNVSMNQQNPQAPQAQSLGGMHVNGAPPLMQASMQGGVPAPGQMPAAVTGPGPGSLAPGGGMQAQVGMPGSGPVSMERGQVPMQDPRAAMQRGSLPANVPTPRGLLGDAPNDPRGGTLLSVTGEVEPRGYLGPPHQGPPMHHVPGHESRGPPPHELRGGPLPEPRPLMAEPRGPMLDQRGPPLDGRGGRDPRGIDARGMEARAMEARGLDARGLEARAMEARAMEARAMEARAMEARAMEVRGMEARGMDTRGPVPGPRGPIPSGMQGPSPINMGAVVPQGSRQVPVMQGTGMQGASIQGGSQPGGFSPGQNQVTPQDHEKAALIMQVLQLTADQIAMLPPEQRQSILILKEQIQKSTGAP
UniProt P35580, whole entry, looked up: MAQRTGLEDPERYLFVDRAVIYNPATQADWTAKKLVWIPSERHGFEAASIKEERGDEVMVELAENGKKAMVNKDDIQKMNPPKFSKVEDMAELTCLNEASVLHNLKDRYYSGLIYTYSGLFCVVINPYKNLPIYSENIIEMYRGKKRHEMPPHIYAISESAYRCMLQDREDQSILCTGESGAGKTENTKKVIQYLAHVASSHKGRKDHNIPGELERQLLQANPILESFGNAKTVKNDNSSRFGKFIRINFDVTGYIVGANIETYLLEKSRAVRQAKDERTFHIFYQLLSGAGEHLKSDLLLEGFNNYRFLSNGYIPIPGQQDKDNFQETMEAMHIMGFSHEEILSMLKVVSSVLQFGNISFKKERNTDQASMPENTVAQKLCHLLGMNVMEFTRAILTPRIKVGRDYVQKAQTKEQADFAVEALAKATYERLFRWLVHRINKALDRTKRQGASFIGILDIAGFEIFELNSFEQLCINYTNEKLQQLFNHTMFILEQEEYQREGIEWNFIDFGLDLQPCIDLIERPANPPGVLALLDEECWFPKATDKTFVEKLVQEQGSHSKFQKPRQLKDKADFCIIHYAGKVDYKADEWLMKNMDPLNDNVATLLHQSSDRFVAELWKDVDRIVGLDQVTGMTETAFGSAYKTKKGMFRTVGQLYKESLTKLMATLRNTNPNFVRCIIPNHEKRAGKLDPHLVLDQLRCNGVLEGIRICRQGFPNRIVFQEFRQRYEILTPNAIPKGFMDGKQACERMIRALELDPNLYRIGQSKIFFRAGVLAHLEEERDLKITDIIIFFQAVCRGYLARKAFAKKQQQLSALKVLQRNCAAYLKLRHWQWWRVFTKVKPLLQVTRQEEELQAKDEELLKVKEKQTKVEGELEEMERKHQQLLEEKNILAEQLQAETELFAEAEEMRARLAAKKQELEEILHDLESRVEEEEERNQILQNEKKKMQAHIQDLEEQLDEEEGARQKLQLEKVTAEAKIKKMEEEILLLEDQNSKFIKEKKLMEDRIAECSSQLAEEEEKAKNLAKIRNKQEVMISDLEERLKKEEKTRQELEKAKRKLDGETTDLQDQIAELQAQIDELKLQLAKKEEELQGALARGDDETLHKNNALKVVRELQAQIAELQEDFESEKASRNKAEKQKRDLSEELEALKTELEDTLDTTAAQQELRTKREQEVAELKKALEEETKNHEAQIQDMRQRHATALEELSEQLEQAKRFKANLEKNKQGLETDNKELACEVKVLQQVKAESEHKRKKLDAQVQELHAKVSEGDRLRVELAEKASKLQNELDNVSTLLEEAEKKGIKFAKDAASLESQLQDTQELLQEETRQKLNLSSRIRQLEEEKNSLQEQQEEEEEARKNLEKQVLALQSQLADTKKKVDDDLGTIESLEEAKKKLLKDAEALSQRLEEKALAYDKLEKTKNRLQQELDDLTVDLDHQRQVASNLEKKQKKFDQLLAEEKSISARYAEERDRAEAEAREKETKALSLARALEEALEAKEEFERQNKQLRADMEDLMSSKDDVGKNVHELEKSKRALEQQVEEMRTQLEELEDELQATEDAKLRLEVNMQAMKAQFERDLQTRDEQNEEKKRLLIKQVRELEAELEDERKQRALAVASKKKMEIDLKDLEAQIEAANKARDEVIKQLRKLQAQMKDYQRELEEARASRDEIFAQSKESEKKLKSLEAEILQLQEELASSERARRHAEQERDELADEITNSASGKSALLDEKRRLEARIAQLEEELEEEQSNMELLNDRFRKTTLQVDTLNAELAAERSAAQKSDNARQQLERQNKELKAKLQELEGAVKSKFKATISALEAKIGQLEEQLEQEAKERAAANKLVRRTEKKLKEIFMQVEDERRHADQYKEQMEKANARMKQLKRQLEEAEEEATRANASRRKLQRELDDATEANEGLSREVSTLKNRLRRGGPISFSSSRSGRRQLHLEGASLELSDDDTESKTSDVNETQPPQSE
UniProt P42574: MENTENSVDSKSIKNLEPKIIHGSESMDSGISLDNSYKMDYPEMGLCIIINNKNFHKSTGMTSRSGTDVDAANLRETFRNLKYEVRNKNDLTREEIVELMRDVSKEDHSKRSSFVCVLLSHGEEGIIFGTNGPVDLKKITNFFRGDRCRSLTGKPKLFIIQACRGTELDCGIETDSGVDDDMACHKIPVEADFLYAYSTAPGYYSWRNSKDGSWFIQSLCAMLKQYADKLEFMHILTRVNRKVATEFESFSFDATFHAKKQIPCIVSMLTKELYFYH
UniProt P37802: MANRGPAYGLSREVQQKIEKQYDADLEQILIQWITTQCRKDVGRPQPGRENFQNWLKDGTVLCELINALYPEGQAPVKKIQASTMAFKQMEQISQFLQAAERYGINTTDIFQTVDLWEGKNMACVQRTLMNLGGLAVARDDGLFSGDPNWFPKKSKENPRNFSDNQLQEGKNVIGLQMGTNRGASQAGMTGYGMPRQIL

Compound: COC(=O)/C=C/c1ccccc1 [methyl cinnamate]
Assay: log2 ratio of iodoacetamide-alkyne labeling of the cysteine site, DMSO over compound (competition); higher = stronger covalent engagement of the cysteine by the compound, active = 1 or more
Conditions: 500 µM; treatment time 1 h; system: HEK293T cell lysate
How it was run: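 For each cysteine, the log2 competition ratio is mean control-channel reporter intensity over mean compound-channel reporter intensity. HEK293T lysate (2 mg/mL) was exposed to vehicle or electrophile (500 µM, 1 h, ambient temperature), labelled with iodoacetamide alkyne (1 h), clicked to sCIP-TMT reagents, digested overnight with trypsin at 37 °C, streptavidin-enriched and analysed by Orbitrap Eclipse LC-MS/MS with FAIMS and FragPipe. Cysteines quantified in only one of three replicates, each with duplicate channels, were excluded.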

log2 ratio of iodoacetamide-alkyne labeling, inactive:
SERPINB6 C350 (UniProt P35237) -0.173, NCAPD3 C330 (UniProt P42695) 0.254, MAT2A C104 (UniProt P31153) -0.16, MYH9 C1437 (UniProt P35579) 0.195, EIF2S3 C105 (UniProt P41091) 0.153, ARL3 C118 (UniProt P36405) 0.243, MCM5 C207 (UniProt P33992) 0.0663, DNAJA1 C302 (UniProt P31689) 0.263, KIF5B C421 (UniProt P33176) 0.205, POLR2B C224 (UniProt P30876) 0.132, MPI C11 (UniProt P34949) -0.00537, LONP1 C704 (UniProt P36776) -0.12, ALDH1B1 C478 (UniProt P30837) -0.347, CSTF2 C62 (UniProt P33240) -0.0599, POLR2B C1137 (UniProt P30876) -0.0143, TTK C322 (UniProt P33981) 0.432, RPL3 C253 (UniProt P39023) 0.171, MYH10 C1238 (UniProt P35580) 0.307, CASP3 C170 (UniProt P42574) 0.15, TAGLN2 C63 (UniProt P37802) 0.0277, LRPPRC C863 (UniProt P42704) -0.167
